Reference: BigSolDB 2.1

N[C@@H](Cc1ccc(O)cc1)C(=O)O
solubility (mole fraction)
Conditions	283.15 K	288.15 K	293.15 K	298.15 K	303.15 K	308.15 K	313.15 K	318.15 K	323.15 K
in DMSO	0.000143	0.000159	0.000176	0.000193	0.000214	0.000234	0.000258	0.000282	0.000308
in ethanol	3.87e-07	5.16e-07	6.58e-07	8.69e-07	1.11e-06	1.4e-06	1.74e-06	2.14e-06	2.65e-06
in methanol	6.42e-07	8.35e-07	1.08e-06	1.39e-06	1.8e-06	2.23e-06	2.72e-06	3.31e-06	4.03e-06
in n-propanol	8.72e-08	1.28e-07	1.83e-07	2.69e-07	3.77e-07	5.24e-07	7.27e-07	9.92e-07	1.33e-06
in water	2.75e-05	3.4e-05	4.18e-05	5e-05	5.95e-05	7.23e-05	8.53e-05	0.0001	0.000119
